Measured values from the supplement of paper PMC8426693.
The list shows a part of the results.

tested on: SARS-CoV-2 5_SL7 RNA; experiment: NMR binding call after quantification (hit when 2 of 3 NMR criteria are met) (binary (1 = binding, 0 = not binding)); higher = binding; conditions: RNA concentration 10 µM; fragment concentration 200 µM; 293 K

Row | Compound | NMR binding call
1 | CC(=O)NCCN1CCCCCC1 | 0
2 | COC(=O)CNC(=O)C1CCCCC1 | 0
3 | Fc1cccc(CNCc2ccco2)c1 | 0
4 | Clc1snnc1CN1CCOCC1 | 0
5 | N#CCC(=O)N1CCC(C(N)=O)CC1 | 0
6 | CCn1cc(CNC(=O)c2cccnc2)cn1 | 0
7 | CC(=O)Nc1ccc(Nc2ccccc2)cc1 | 0
8 | CCOc1ccc(CC(=O)O)cc1 | 0
9 | Cl.NC1CCCN(C(=O)CCC(F)(F)F)C1 (stereo not given) | 0
10 | Cn1ccc(NCc2ccccc2)n1 | 0
11 | CS(=O)(=O)NC1(C(=O)O)CCCCC1 | 0
12 | CN(CCO)S(=O)(=O)c1ccc(N)cc1 | 0
13 | O=C(CC1CCCCC1)Nn1cnnc1 | 0
14 | CCN(CCO)c1ccc(N)cc1 | 0
15 | O=C(NCC1CC1)Nc1ccc2c(c1)CCO2 | 0
16 | OC1CCN(Cc2ccsc2)CC1 | 0
17 | O=C(Nc1nc2ccccc2[nH]1)C1CCCCC1 | 0
18 | Cc1ccccc1CC(N)=O | 0
19 | CC(=O)NC(C)(C(=O)O)C1CC1 (stereo not given) | 0
20 | CC(=O)Nc1ncc(Cc2cccc(C)c2)s1 | 0

Row | Compound | NMR binding call
21 | COc1cccc(C(=O)Nc2ccccc2F)c1 | 0
22 | CN(CCc1ccccn1)C(=O)c1ccccc1 | 0
23 | COc1ccc(C(N)c2ccccc2)cc1.Cl (stereo not given) | 0
24 | c1ccc(-c2ccc(-n3cnnn3)cc2)cc1 | 1
25 | NC(=O)c1cnc(C(F)(F)F)nc1 | 0
26 | CC(=O)NCc1cncs1 | 0
27 | COc1ccc(NC(=O)CN)cc1 | 0
28 | Cc1cc(C2CCCN2S(C)(=O)=O)no1 (stereo not given) | 0
29 | COC(=O)C1CCN(CC(N)=O)CC1 | 0
30 | CC(NS(C)(=O)=O)c1ccccc1Cl (stereo not given) | 0
31 | NC(=O)c1ccc(NC(=O)C2CCCO2)cc1 (stereo not given) | 0
32 | COc1ccc(CNC2CCCC2)cc1 | 0
33 | OCCN1CCOCC1 | 0
34 | CNC1CCN(c2ccccc2F)C1=O.Cl (stereo not given) | 0
35 | CC1CCN(CCN)CC1 | 0
36 | CCC(CO)NC(=O)Nc1ccc(Cl)cc1 (stereo not given) | 0
37 | O=C(Nc1nnc(-c2ccco2)s1)C1CC1 | 0
38 | O=C(COc1ccccc1)NC1CCCCC1 | 0
39 | CN(C(=O)C1CC1(C)C)c1cccnc1 (stereo not given) | 0
40 | CCC(=O)Nc1ccc2[nH]c(=O)[nH]c2c1 | 0

Pulled by compound from above:
Row | Compound | NMR binding call
31 | NC(=O)c1ccc(NC(=O)C2CCCO2)cc1 (stereo not given) | 0
27 | COc1ccc(NC(=O)CN)cc1 | 0
